In this assay the target is HA-AT1aR (UniProt P25095). The assay can be described thus: confocal microscopy in HEK-293 cells after agonist, data not shown.

Amino acid sequences for entries named in this document (tags omitted). A change or cut given only in a name is not applied to a line headed by its entry.
UniProt P25095: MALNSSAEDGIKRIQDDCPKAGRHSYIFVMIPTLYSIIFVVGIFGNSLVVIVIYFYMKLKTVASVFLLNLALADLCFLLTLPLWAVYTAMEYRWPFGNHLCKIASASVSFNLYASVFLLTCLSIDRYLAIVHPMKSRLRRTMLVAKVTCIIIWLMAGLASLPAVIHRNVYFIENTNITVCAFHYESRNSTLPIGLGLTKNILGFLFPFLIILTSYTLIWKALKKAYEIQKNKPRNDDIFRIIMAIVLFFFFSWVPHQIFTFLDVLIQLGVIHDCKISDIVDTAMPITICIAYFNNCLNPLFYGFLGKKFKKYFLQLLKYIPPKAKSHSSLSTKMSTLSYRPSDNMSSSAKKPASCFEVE
UniProt P29067: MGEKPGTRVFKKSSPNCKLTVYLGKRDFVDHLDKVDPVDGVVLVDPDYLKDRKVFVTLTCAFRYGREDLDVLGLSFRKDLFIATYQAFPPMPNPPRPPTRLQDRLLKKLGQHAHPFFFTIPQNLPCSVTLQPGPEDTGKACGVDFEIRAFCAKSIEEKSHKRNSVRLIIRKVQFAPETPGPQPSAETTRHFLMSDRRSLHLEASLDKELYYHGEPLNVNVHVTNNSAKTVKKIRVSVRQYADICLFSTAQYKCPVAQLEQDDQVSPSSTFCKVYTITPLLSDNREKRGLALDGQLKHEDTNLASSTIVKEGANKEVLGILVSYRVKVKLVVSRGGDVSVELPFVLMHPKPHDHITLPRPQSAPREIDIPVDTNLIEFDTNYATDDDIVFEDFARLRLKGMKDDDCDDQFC

Results are given in words; binding and its absence hold for the method and conditions named. Some results given as binding are weak or reduced against the parent protein; the word gives no strength.

Turning to “YFP-βarrestin2-K296R (from UniProt P29067 1-410)”, the binding result is given as “binds”.
For “YFP-βarrestin2-WT (from UniProt P29067 1-410)”, the binding entry is recorded as “binds”.

Source of the values: patent US20230227514A1, “BETA-ARRESTIN COMPOSITIONS AND ASSOCIATED METHODS” (Duke University, priority 2020, published 2023).
